These are yes or no findings as the source states them, for the method shown. Some results given as binding are weak or reduced against the parent protein; the word gives no strength.
Columns and labels:
[1] = target: T1, human B7-H4 protein (as used with the CAR T cells of Example 3) (human) (UniProt Q7Z7D3); assay: binding of B7-H4 protein to CAR T cells (FIG. 13)
T1 sequence (looked up): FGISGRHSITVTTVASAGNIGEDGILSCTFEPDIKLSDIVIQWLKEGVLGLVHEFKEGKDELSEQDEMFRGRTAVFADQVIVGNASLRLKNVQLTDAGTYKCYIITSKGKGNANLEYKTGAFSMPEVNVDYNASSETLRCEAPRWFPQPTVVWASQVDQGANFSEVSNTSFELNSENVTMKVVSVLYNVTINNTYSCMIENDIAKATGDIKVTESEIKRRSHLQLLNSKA

By UniProt entry, the sequences of proteins in these tests, tags left out. Where a name states a change or a piece, a line headed by the entry shows the natural chain unless it says otherwise.
UniProt P01732: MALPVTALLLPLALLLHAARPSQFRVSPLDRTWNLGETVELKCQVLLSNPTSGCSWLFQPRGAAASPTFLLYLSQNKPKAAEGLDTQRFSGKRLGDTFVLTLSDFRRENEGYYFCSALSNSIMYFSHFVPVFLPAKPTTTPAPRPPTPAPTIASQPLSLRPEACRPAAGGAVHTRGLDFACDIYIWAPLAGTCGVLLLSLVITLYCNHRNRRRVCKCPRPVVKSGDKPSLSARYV

[2] = target: T1, human B7-H4 protein (as used with the CAR T cells of Example 3) (human); assay: binding of B7-H4 protein to CAR T cells (FIG. 14)
[3] = target: T2, mouse B7-H4 protein (mouse) (UniProt Q7TSP5); assay: binding of B7-H4 protein to CAR T cells (FIG. 14)
T2 sequence (looked up): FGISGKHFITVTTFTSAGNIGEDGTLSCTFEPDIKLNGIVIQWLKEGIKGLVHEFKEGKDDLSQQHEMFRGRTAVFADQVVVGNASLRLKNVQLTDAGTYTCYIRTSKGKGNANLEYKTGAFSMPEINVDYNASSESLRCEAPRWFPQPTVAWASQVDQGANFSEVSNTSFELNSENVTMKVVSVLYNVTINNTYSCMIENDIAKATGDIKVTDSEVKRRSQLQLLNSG

[4] = target: T1, human B7-H4 protein (as used with the CAR T cells of Example 3) (human); assay: binding of B7-H4 protein to CAR T cells (FIG. 13 legend)
[5] = target: T1, human B7-H4 protein (as used with the CAR T cells of Example 3) (human); assay: binding of B7-H4 protein to CAR T cells (FIG. 14 legend)
[6] = target: T2, mouse B7-H4 protein (mouse); assay: as above

Measured: binding

B7-H4 CAR with anti-B7H4 scFv clone 3#54 (from UniProt P01732 138-206; P10747 180-220; P20963 52-163)
binds: all assays above

B7-H4 CAR with anti-B7H4 scFv clone 3#68 (from UniProt P01732 138-206; P10747 180-220; P20963 52-163)
binds: all assays above

B7-H4 CAR with anti-B7H4 scFv clone 26 (from UniProt P01732 138-206; P10747 180-220; P20963 52-163)
binds: all assays above

B7-H4 CAR with anti-B7H4 scFv clone 56 (from UniProt P01732 138-206; P10747 180-220; P20963 52-163)
binds: all assays above

— patent US20140308259A1 (University of Pennsylvania, published 2014)
